Measurements reported in patent publication US8461305B2, “L-fucose α1→6 specific lectin” (J-Oil Mills, Inc., priority 2008, dated 2013).

Legend:
Mucin (pig) (pig) [1] = assay: hemagglutination inhibition
Mucin (pig) (pig) [2] = assay: ELISA, glycoprotein coated, biotin-labeled lectin; thyroglobulin = 100%; ⊚ = relative values of 120 to 80
Mucin (bovine) (bovine) [3] = assay: as above
Mucin (pig) (pig) [4] = assay: ELISA with biotin-labeled lectin
Mucin (bovine) (bovine) [5] = assay: ELISA with biotin-labeled lectin

Measured: binding

B1: Aleuria aurantia lectin (AAL) of Comparison Example 1 (other, UniProt P18891 2-313, looked up)
chain: PTEFLYTSKIAAISWAATGGRQQRVYFQDLNGKIREAQRGGDNPWTGGSSQNVIGEAKLFSPLAAVTWKSAQGIQIRVYCVNKDNILSEFVYDGSKWITGQLGSVGVKVGSNSKLAALQWGGSESAPPNIRVYYQKSNGSGSSIHEYVWSGKWTAGASFGSTVPGTGIGATAIGPGRLRIYYQATDNKIREHCWDSNSWYVGGFSASASAGVSIAAISWGSTPNIRVYWQKGREELYEAAYGGSWNTPGQIKDASRPTPSLPDTFIAANSSGNIDISVFFQASGVSLQQWQWISGKGWSIGAVVPTGTPAGW
modifications: biotin-labeled in the Western blotting and ELISA experiments
notes: Bought lectin
binds: Mucin (pig) (pig) [1] | Mucin (pig) (pig) [2] | Mucin (bovine) (bovine) [3] | Mucin (pig) (pig) [4] | Mucin (bovine) (bovine) [5]

Results are given in words; binding and its absence hold for the method and conditions named. Binding calls can cover weak binding; strength is not graded here.
